Assay results

Data taken from PubChem BioAssay AID624032, deposited by NCATS (2012).

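Rat S16 Schwann cells stably carrying a firefly luciferase reporter under a PMP22 intronic regulatory element; luminescence measured after 24 h of compound exposure.
Seventeen-point concentration series from about 0.00016 to 58 µM.
Potency is the AC50 from a fitted inhibition curve, the concentration giving half the maximal fitted effect; a lower value means a more potent inhibitor.
Calls follow the activity score from curve class and fit: scores 40–100 are active, 1–39 inconclusive, 0 inactive; all rows here are inconclusive.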

Values are in µM.
Every entry below has the call inconclusive.
Only part of the assay is shown, chiefly results filed as inconclusive.
A potency from a partial, single-point or poor curve is only a rough figure.
Activity scores are not listed here.

Compound	potency (µM)	curve
COc1cc2c(cc1OC)C(=O)C(CC1CCN(Cc3ccccc3)CC1)C2 (stereo unspecified)	10.18	inhibitor, single point
O=C1C(I)=CC(=C(c2cc(I)c(O)c(I)c2)c2ccccc2C(=O)O)C=C1I	40.53	inhibitor, single point
CCC(=O)c1ccc2c(c1)N(CCCN1CCN(CCO)CC1)c1ccccc1S2	36.13	inhibitor, partial curve, poor fit
CNC(=O)Oc1cccc2ccccc12	0.0256	inhibitor, full curve, poor fit
C#C[C@]1(O)CCC2C3CCC4=CC(=O)CCC4C3CC[C@@]21C (stereo partly specified)	40.53	inhibitor, single point
COP(=S)(OC)Oc1ccc(SC)c(C)c1	2.869	inhibitor, full curve, poor fit
CC(C)Cn1cnc2c(N)nc3ccccc3c21	16.14	inhibitor, single point
CC[n+]1c(-c2ccccc2)c2cc(N)ccc2c2ccc(N)cc21	14.38	inhibitor, full curve, poor fit
CCCc1nn(C)c2c(=O)[nH]c(-c3cc(S(=O)(=O)N4CCN(C)CC4)ccc3OCC)nc12	25.57	inhibitor, partial curve
C[C@H]1CCC[C@H](O)CCCCCc2cc(O)cc(O)c2C(=O)O1	16.14	inhibitor, partial curve, poor fit
CN(C)CCCN1c2ccccc2Sc2ccc(Cl)cc21	40.53	inhibitor, single point
CCN(CC)CCOC(=O)C(c1ccccc1)c1ccccc1	0.2031	inhibitor, full curve, poor fit
OCCN1CCN(CCCN2c3ccccc3Sc3ccc(C(F)(F)F)cc32)CC1	20.31	inhibitor, partial curve
CO[C@H]1C[C@@H]2CC[C@@H](C)[C@@](O)(O2)C(=O)C(=O)N2CCCC[C@H]2C(=O)O[C@H]([C@H](C)C[C@@H]2CC[C@@H](OCCO)[C@H](OC)C2)CC(=O)[C@H](C)/C=C(\C)[C@@H](O)[C@@H](OC)C(=O)[C@H](C)C[C@H](C)/C=C/C=C/C=C/1C	32.2	inhibitor, partial curve, poor fit
O=S(=O)(O)c1ccc2c(N=Nc3ccc(S(=O)(=O)O)c4ccccc34)c(O)c(S(=O)(=O)O)cc2c1	36.13	inhibitor, single point
NC(=O)c1cc([N+](=O)[O-])cc([N+](=O)[O-])c1	10.18	inhibitor, partial curve
CNCCCCOc1ccccc1Cc1ccccc1	40.53	inhibitor, single point
Cc1nc2n(c(=O)c1CCN1CCC(c3noc4cc(F)ccc34)CC1)CCCC2	32.2	inhibitor, partial curve
Oc1ccc(O)cc1	4.053	inhibitor, full curve, poor fit
CC(=O)C1(O)Cc2c(O)c3c(c(O)c2C(OC2CC(N)C(O)C(C)O2)C1)C(=O)c1c(O)cccc1C3=O (stereo unspecified)	40.53	inhibitor, partial curve, poor fit
C#C[C@]1(O)CC[C@@H]2[C@H]3CCC4=CC(=O)CC[C@H]4[C@H]3C(=C)C[C@@]21CC	1.614	inhibitor, full curve, poor fit
CN[C@H]1CC[C@@H](c2ccc(Cl)c(Cl)c2)c2ccccc21	36.13	inhibitor, single point
CCCCCCCCCCCCCCCC[N+](C)(C)CCN(Cc1ccc(OC)cc1)c1ncccn1	15.47	inhibitor, single point
C=CCN1CC(C(=O)N(CCCN(C)C)C(=O)NCC)CC2c3cccc4[nH]cc(c34)CC21 (stereo unspecified)	10.18	inhibitor, single point
CCN(CC)Cc1cc(Nc2ccnc3cc(Cl)ccc23)ccc1O	15.47	inhibitor, single point
CC(=O)O[C@@]12CO[C@@H]1C[C@H](O)[C@@]1(C)C(=O)[C@H](O)C3=C(C)[C@@H](OC(=O)C(O)[C@@H](NC(=O)OC(C)(C)C)c4ccccc4)C[C@@](O)([C@@H](OC(=O)c4ccccc4)[C@H]21)C3(C)C (stereo partly specified)	0.0064	inhibitor, full curve, poor fit
Cc1onc(-c2ccccc2Cl)c1C(=O)N[C@H]1C(=O)N2[C@H]1SC(C)(C)[C@H]2C(=O)O	0.1547	inhibitor, full curve, poor fit
[O]=[Cr](=[O])([OH])[O][Cr](=[O])(=[O])[OH]	14.38	inhibitor, full curve, poor fit
CCOC(=O)/C=C(C)/C=C/C=C(C)/C=C/c1c(C)cc(OC)c(C)c1C	10.18	inhibitor, partial curve, poor fit
Cc1ncc2n1-c1ccc(Cl)cc1C(c1ccccc1F)=NC2	10.18	inhibitor, full curve, poor fit
CC1=C(/C=C/C(C)=C\C=C\C(C)=C\C=C\C=C(C)\C=C\C=C(C)\C=C\C2=C(C)C[C@@H](O)CC2(C)C)C(C)(C)C[C@H](O)C1	9.074	inhibitor, full curve, poor fit
C[C@]12CC[C@H](O)CC1=CCC1C2CC[C@]2(C)C(=O)CC[C@@H]12 (stereo partly specified)	40.53	inhibitor, partial curve
CN1CCN(C2=Nc3cc(Cl)ccc3Nc3ccccc32)CC1	0.0128	inhibitor, full curve, poor fit
Cc1cc(N)c2cc(NC(=O)Nc3ccc4nc(C)cc(N)c4c3)ccc2n1	0.7208	inhibitor, partial curve, poor fit
CC(=O)[C@H]1CC[C@H]2[C@@H]3CC[C@H]4C[C@H](O)CC[C@]4(C)[C@H]3C(=O)C[C@]12C	6.424	inhibitor, partial curve, poor fit
CC/C(=C(/CC)c1ccc(O)cc1)c1ccc(O)cc1	32.2	inhibitor, partial curve, poor fit
CC1(CN2CCC(n3c(=O)[nH]c4ccccc43)CC2)OCc2ccccc2-n2cccc21 (stereo unspecified)	28.7	inhibitor, partial curve, poor fit
CCOc1ccc2nc3cc(N)ccc3c(N)c2c1	10.18	inhibitor, partial curve

The first 5 entries again:

Compound,potency (µM),curve
COc1cc2c(cc1OC)C(=O)C(CC1CCN(Cc3ccccc3)CC1)C2 (stereo unspecified),10.18,"inhibitor, single point"
O=C1C(I)=CC(=C(c2cc(I)c(O)c(I)c2)c2ccccc2C(=O)O)C=C1I,40.53,"inhibitor, single point"
CCC(=O)c1ccc2c(c1)N(CCCN1CCN(CCO)CC1)c1ccccc1S2,36.13,"inhibitor, partial curve, poor fit"
CNC(=O)Oc1cccc2ccccc12,0.0256,"inhibitor, full curve, poor fit"
C#C[C@]1(O)CCC2C3CCC4=CC(=O)CCC4C3CC[C@@]21C (stereo partly specified),40.53,"inhibitor, single point"